PubChem BioAssay AID504793 | Drosophila RNAi Screening Center – 2011

Aim: 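Genes required for cells to halt at G2/M after double-strand DNA breaks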 (primary screen)
Cell system: Drosophila S2R+ cells
Knock-down reagent: long dsRNA against Drosophila genes, about 0.25 µg dsRNA per well
Timing: 4 days of dsRNA, then 4 hours of drug before read-out
Conditions: doxorubicin 0.5 µM for 4 hours to cause double-strand breaks, in cells also given a low, harmless dose of dsRNA against nbs to sensitise the assay
Detection: 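Per-well count of mitotic cells stained for phospho-histone H3 after doxorubicin exposure, used as mitotic index; counts are raw and not normalised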
Reading the numbers: mitotic cells: higher = more cells in mitosis, weaker G2 arrest
Active means: 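Genes are called active only when high mitotic counts were reproduced with independent dsRNAs and mitosis was checked for delay without damage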
Calls: active = confirmed in follow-up tests; inactive = not confirmed
In all, the deposit lists about 23,000 reagents; this is an unselected part of those that have a named target and a result. In the full data, 62 (0.27%) are marked active. 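Calls come from follow-up tests whose scores are not deposited, so confirmed genes may have low counts here; counts are not normalised per plate.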 Raw values are not corrected between plates. A plus sign joins genes that one reagent is predicted to hit.

gene,dsRNA,"mitotic cells, replicate 1","mitotic cells, replicate 2",activity call
Tpt,DRSC27217,4,,inactive
CG12688 (retired record),DRSC17877,9,3,inactive
CG12688 (retired record),DRSC17878,16,13,inactive
sun,DRSC20140,12,,inactive
sun,DRSC26284,9,,inactive
Lim3,DRSC23034,12,,inactive
Lim3,DRSC28555,1,,inactive
CG7309,DRSC03045,3,,inactive
CG7309,DRSC27252,11,,inactive
lncRNA:CR33948,DRSC37885,8,,inactive
Tsp3A,DRSC18656,14,,inactive
Tsp3A,DRSC25654,6,,inactive
CG3880,DRSC04428,7,,inactive
CG3880,DRSC21404,10,,inactive
CG3880,DRSC27449,3,,inactive
dally,DRSC08954,8,,inactive
dally,DRSC11338,5,,inactive
asRNA:CR33945,DRSC14080,6,,inactive
asRNA:CR33945,DRSC38805,6,,inactive
CG7857,DRSC10925,3,,inactive
CG7857,DRSC29862,8,,inactive
Spn28Dc,DRSC03029,3,,inactive
CG7276,DRSC10797,3,,inactive
Ubr1,DRSC20148,5,,inactive
CG4424,DRSC15576,9,,inactive
Arl6IP1,DRSC14231,1,,inactive
blo,DRSC05937,2,,inactive
blo,DRSC27060,7,,inactive
CG15563,DRSC15101,8,,inactive
CG15563,DRSC27442,6,,inactive
OXA1L,DRSC09672,8,,inactive
OXA1L,DRSC29571,9,,inactive
CG12995,DRSC19515,8,,inactive
CG12995,DRSC27519,5,,inactive
CG15891 + CG15892,DRSC18095,4,,inactive
CG15891 + CG15892,DRSC18096,8,,inactive
SmB,DRSC03437,6,,inactive
SmB,DRSC26259,1,,inactive
PGRP-SC1b,DRSC07215,5,,inactive
TTLL5,DRSC14181,7,,inactive
CG13694,DRSC00363,2,,inactive
CG16970 (retired record),DRSC02549,2,,inactive
CG16970 (retired record),DRSC25187,2,,inactive
CAH9,DRSC15963,9,,inactive
CAH9,DRSC29677,13,,inactive
CG11379,DRSC18629,4,,inactive
Tbc1d15-17,DRSC00313,2,,inactive
Tbc1d15-17,DRSC28813,8,,inactive
Ir7a,DRSC17866,7,,inactive
CG15446,DRSC20518,3,,inactive
Rox8,DRSC16829,11,,inactive
Rox8,DRSC29536,3,,inactive
CG7084,DRSC16194,3,,inactive
CG6865,DRSC10732,5,,inactive
Esp,DRSC16664,10,,inactive
Jupiter,DRSC15204,10,,inactive
Jupiter,DRSC15205,6,,inactive
Jupiter,DRSC15389,6,,inactive
CtIP,DRSC11785,6,,inactive
CtIP,DRSC29281,4,,inactive
Ocho,DRSC11239,4,,inactive
Ocho,DRSC28920,2,,inactive
Gprk2,DRSC16682,7,,inactive
Gprk2,DRSC23336,17,,inactive
nst,DRSC09755,7,,inactive
Cyt-b5-r,DRSC03308,2,,inactive
croc,DRSC11884,1,,inactive
croc,DRSC29346,7,,inactive
CG17377,DRSC00950,13,,inactive
CG17377,DRSC02615,8,,inactive
CG17377,DRSC21811,14,,inactive
CG17377,DRSC28817,4,,inactive
CG16952,DRSC19759,7,,inactive
Rdl,DRSC11264,11,,inactive
Rdl,DRSC27696,5,,inactive

Not a retest: 13 of the entries above.
gene,dsRNA,"mitotic cells, replicate 1","mitotic cells, replicate 2",activity call
OXA1L,DRSC29571,9,,inactive
CG12995,DRSC19515,8,,inactive
CG12995,DRSC27519,5,,inactive
CG15891 + CG15892,DRSC18095,4,,inactive
CG15891 + CG15892,DRSC18096,8,,inactive
SmB,DRSC03437,6,,inactive
SmB,DRSC26259,1,,inactive
PGRP-SC1b,DRSC07215,5,,inactive
TTLL5,DRSC14181,7,,inactive
CG13694,DRSC00363,2,,inactive
CG16970 (retired record),DRSC02549,2,,inactive
CG16970 (retired record),DRSC25187,2,,inactive
CAH9,DRSC15963,9,,inactive
